For experiment [1], the target named is EcR-B1 AF2 domain (EcR-AF2), two-hybrid bait (Drosophila). The experiment can be described thus: two-hybrid; EcR/USP fragments in pGBKT7 (bait), Drosophila Med14/CDK8 in pGADT7 (prey), in yeast cells; the ligand 20E not present.
Experiment [2] addresses EcR-B1 AF1 domain (EcR-AF1), two-hybrid bait (Drosophila). The experiment is described as above.

The values below come from publication PMC4519132.

No constants are given. Whether binding was seen depends on the method and setting. For some assays here: Binding calls can cover weak binding; strength is not graded here.

B1: Med14 (159-320AA), fragment that contains the LXXLL motif, two-hybrid prey (domain or fragment, UniProt Q9W0P8 159-320)
chain: IRERIVPADAITPAEKRQTLLRLNQVIQHRLVTGKLLPQMREFRIRNGRVTFEVKHEFSVSLTVMGDNPTVPWRLLDIDVLVEDKETGDGKSLVHPLQVNYIHQLIQARLVENPNALSEVYNCLHYFCQSLQLEVLYTQTLRLNYERLDDNNITVEEYVPGV
With B1, the binding entry is “no binding” in experiment [1] and “binds” in experiment [2].
